# The supplement of paper PMC7666118
# Amino acid sequences for entries named in this document (tags omitted). A change or cut given only in a name is not applied to a line headed by its entry.
# UniProt Q15061: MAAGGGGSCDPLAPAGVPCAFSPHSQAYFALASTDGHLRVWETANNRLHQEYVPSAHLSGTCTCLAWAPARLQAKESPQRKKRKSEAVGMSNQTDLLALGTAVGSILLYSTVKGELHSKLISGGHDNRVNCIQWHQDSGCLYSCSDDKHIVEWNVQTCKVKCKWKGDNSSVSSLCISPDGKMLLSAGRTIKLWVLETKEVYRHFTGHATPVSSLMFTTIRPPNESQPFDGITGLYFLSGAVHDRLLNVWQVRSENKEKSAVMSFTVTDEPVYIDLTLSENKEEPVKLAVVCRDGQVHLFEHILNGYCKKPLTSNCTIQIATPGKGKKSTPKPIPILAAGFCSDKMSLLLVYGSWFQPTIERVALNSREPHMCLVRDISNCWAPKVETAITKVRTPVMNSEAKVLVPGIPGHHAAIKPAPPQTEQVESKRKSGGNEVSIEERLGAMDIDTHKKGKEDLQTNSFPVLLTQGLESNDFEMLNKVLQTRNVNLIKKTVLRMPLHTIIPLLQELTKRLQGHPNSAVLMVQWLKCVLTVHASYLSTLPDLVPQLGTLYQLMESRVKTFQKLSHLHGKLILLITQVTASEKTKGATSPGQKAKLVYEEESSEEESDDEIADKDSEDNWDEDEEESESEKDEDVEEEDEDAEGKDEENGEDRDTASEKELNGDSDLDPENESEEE
# UniProt Q6NZY4: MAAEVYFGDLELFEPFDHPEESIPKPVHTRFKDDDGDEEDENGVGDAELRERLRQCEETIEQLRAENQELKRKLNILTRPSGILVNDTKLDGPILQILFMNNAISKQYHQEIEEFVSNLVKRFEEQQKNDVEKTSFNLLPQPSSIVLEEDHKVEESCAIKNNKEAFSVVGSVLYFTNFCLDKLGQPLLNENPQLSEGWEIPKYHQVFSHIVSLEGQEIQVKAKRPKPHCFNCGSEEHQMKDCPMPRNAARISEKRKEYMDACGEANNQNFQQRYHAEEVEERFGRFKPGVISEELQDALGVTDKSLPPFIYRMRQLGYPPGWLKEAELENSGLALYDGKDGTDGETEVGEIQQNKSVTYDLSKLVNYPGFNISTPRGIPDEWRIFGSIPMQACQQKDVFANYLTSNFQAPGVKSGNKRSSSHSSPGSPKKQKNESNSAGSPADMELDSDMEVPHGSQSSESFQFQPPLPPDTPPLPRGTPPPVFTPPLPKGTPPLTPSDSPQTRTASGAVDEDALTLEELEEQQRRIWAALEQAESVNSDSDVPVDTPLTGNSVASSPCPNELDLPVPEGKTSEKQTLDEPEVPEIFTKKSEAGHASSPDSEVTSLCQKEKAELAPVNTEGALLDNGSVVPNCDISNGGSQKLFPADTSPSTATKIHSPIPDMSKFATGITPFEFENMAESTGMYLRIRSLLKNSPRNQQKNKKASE
# UniProt Q9ULU4: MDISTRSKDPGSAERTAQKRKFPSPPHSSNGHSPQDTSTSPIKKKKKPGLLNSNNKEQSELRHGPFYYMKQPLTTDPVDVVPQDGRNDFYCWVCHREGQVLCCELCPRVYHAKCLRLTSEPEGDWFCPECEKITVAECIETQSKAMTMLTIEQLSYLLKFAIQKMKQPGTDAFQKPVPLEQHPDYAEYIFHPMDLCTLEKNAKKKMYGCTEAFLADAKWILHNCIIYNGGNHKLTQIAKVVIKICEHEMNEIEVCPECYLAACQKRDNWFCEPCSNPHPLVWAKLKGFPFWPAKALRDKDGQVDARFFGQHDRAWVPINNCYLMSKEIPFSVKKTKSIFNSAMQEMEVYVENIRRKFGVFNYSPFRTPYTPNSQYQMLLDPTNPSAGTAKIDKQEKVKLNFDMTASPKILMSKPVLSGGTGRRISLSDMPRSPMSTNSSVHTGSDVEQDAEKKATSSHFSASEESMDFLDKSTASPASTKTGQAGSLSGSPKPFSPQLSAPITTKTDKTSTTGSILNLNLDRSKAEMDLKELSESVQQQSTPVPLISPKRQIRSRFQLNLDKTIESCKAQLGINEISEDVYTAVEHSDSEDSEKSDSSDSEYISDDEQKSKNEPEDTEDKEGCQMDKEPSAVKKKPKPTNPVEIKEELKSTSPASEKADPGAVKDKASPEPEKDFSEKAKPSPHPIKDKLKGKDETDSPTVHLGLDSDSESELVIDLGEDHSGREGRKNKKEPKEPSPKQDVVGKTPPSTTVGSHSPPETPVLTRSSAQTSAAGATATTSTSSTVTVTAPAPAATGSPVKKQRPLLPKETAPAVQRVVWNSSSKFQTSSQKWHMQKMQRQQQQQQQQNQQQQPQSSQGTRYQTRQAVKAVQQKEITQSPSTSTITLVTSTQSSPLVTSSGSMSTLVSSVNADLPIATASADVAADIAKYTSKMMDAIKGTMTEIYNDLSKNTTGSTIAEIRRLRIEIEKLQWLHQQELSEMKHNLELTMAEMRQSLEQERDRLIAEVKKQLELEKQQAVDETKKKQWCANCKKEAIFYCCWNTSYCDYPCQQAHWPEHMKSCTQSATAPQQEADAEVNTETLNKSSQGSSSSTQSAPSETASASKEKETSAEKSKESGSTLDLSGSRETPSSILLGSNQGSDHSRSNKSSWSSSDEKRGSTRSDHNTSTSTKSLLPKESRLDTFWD
# UniProt Q8N9V3: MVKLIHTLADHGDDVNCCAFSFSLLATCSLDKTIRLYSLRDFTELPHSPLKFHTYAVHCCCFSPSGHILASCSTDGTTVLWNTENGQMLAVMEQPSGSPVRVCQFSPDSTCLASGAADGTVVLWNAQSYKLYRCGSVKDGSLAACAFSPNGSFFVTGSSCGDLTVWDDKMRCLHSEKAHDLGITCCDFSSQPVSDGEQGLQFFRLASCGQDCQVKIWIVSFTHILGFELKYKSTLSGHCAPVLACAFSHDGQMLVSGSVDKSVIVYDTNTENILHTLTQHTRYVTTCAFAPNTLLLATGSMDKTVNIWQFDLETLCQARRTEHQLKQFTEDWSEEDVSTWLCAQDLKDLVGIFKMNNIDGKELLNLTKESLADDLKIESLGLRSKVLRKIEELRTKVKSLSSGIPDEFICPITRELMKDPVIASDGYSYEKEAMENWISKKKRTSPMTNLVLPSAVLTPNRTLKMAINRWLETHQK
# UniProt Q6RFH5: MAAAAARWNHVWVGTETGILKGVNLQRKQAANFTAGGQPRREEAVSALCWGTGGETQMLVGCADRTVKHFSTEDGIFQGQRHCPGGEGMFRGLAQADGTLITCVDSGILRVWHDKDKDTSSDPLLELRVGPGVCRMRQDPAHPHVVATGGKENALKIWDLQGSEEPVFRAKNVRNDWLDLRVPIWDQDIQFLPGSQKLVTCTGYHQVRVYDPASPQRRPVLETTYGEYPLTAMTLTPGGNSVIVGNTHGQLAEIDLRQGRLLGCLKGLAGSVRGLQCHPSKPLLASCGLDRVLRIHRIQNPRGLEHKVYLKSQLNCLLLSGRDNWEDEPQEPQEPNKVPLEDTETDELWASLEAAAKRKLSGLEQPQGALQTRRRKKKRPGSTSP
# UniProt Q8NI36: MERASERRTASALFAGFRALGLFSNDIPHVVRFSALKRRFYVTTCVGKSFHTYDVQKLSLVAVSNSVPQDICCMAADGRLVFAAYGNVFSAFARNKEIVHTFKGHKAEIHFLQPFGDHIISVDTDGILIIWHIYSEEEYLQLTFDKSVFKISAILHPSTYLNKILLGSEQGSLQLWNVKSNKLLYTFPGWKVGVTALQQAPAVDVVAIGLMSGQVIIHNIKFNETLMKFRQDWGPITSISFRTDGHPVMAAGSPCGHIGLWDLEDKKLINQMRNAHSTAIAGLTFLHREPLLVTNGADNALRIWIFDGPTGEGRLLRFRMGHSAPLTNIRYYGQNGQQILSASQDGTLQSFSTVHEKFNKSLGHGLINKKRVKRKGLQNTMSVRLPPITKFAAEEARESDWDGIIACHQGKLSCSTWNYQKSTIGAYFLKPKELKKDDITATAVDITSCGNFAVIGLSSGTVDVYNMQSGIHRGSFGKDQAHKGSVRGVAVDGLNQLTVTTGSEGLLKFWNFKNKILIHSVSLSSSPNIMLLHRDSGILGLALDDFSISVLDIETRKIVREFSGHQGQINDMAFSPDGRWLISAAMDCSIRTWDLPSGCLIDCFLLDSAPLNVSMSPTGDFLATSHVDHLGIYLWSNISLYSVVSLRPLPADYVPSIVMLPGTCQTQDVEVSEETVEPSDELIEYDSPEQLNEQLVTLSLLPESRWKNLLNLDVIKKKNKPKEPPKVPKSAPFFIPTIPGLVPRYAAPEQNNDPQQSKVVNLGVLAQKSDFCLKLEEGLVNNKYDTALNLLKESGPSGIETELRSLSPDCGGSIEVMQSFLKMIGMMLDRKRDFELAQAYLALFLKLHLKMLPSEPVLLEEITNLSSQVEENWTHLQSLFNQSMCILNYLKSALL
# UniProt Q92558: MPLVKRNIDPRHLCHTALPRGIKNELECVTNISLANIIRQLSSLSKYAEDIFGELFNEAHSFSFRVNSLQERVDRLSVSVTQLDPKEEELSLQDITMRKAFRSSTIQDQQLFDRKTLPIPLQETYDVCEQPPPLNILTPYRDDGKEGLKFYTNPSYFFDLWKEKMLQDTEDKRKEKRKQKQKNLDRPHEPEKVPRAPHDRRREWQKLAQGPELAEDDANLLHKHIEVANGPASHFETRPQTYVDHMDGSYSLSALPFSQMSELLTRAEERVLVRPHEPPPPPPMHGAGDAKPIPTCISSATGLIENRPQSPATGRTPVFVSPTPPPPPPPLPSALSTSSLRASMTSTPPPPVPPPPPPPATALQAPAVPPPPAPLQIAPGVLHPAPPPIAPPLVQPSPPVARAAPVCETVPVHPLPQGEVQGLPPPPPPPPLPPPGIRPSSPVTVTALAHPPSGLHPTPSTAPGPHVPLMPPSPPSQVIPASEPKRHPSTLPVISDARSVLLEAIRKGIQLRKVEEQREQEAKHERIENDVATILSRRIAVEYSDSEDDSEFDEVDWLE
# UniProt Q9NW82: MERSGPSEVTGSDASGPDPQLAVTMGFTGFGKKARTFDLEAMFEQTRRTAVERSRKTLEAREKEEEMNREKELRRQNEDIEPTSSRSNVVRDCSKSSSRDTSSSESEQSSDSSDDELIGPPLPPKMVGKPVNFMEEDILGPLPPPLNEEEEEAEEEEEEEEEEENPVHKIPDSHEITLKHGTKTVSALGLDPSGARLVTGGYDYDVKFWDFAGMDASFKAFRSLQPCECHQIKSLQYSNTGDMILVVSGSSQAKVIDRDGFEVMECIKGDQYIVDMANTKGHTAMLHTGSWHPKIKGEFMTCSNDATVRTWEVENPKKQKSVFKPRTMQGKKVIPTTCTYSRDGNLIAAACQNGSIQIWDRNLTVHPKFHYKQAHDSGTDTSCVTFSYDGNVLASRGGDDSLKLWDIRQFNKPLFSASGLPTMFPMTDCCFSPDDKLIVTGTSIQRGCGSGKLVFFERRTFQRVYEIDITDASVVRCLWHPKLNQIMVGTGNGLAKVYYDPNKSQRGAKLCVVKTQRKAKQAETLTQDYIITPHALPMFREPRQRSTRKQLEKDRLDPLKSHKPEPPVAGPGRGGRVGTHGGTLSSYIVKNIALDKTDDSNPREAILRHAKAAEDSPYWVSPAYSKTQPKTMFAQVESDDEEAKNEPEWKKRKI
# UniProt O95625: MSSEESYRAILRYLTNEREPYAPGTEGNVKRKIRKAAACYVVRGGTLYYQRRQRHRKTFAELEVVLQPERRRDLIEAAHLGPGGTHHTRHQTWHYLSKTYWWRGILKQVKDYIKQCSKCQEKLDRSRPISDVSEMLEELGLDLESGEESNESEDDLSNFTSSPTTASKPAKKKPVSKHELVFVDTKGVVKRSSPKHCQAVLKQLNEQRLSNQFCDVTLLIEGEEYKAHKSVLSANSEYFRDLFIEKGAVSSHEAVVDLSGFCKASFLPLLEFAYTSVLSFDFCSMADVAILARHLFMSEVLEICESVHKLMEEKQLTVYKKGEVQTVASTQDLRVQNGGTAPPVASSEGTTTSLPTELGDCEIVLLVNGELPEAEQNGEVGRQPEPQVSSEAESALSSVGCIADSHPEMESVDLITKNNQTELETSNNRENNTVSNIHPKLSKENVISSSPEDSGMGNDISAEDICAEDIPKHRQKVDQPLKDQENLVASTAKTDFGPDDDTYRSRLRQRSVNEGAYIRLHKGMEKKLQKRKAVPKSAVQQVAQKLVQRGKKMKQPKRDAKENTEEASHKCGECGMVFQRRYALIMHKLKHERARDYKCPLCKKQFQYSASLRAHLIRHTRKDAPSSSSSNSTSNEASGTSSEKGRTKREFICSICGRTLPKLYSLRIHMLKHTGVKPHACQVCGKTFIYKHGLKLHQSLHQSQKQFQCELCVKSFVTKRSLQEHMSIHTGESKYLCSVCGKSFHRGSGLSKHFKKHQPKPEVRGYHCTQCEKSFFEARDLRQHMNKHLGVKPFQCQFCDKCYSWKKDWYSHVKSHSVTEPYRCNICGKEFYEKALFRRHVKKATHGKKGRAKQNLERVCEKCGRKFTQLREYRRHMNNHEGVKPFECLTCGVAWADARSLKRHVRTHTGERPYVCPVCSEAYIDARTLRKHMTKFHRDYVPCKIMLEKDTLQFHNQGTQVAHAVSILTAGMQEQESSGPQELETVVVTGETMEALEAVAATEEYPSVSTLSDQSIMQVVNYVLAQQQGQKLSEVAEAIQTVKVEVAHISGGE
# The list shows a part of the results.
# Compound: COc1ccc(Cn2ccc3ccc(C(=O)NO)cc32)cc1
# Assay: dose-dependent thermal stabilisation call (2D-TPP, DLPTP, 10% FDR) (binary (1 = stabilised)); higher = stabilised by the compound
# Settings: system: HL-60 intact cells; concentration range 0.04-10 µM
row,Target,dose-dependent thermal stabilisation call
1,WDR43 (UniProt Q15061),inactive: 0
2,ZCCHC8 (UniProt Q6NZY4),inactive: 0
3,ZMYND8 (UniProt Q9ULU4),inactive: 0
4,WDSUB1 (UniProt Q8N9V3),inactive: 0
5,WDR74 (UniProt Q6RFH5),inactive: 0
6,UTP18 (UniProt Q9Y5J1),inactive: 0
7,WDR36 (UniProt Q8NI36),inactive: 0
8,WASF1 (UniProt Q92558),inactive: 0
9,WDR70 (UniProt Q9NW82),inactive: 0
10,ZBTB11 (UniProt O95625),inactive: 0
11,VLDLR (UniProt P98155),inactive: 0

# Some of the entries so far, tab-delimited:
row	Target	dose-dependent thermal stabilisation call
7	WDR36 (UniProt Q8NI36)	inactive: 0
9	WDR70 (UniProt Q9NW82)	inactive: 0
10	ZBTB11 (UniProt O95625)	inactive: 0
